# Test results: paper PMC3812221
# No constants are given. Whether binding was seen depends on the method and setting.
# Molecular target: outer envelope protein of molar mass 16 kDa (OEP16) (UniProt Q41050)
# Assay: NMR 15N relaxation (T1Z, T2; overall rotational correlation time); U-15N OEP16 in 0.4% SDS micelles, 20 mM NaH2PO4 pH 6.5, 100 mM NaCl, 310 K, 600 MHz; correlation time 12.5 ns against 18-19 ns expected for a dimer; both purified
binder,measurement,value
"outer envelope protein of molar mass 16 kDa (OEP16) (protein, UniProt Q41050 1-146) MPRSSFSGSLSSPKLDVVIDMGNPFLNLTVDGFLKIGAVAATRSVAEDTFHIIRKGSISSNDFEKSLKKMCKEGAYWGAIAGVYVGMEYGVERIRGTRDWKNAMFGGAVTGALVSAASNNKKDKIAVDAITGAAIATAAEFINYLT",binding,no binding (tested: 1.5 mM (typical 15N sample))
